The results in this text go back to patent US20230133716 (published 2023).

The data set is described as follows: general procedure: Fmoc solid-phase peptide synthesis; 2-CTC resin (1.10 mmol/g) for protected fragments; Wang resin for semaglutide; DIC/HOBT; TBTU/HOBT/DIEA.

Consider semaglutide, for which, under “purification step, purification yield”, the step yield is recorded as 64.20%. For the same substance, the “final HPLC purity” value (whole synthesis, HPLC) is 99.8%.
